# PubChem BioAssay AID652259 – Drosophila RNAi Screening Center, 2013
# Purpose: 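Genome-wide hunt for genes that control Wingless pathway activity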 (primary screen)
# System: Drosophila clone 8 imaginal disc epithelial cells
# Reagent: long dsRNA against Drosophila genes
# Treatment: pathway stimulated by co-transfected Wingless expression plasmid
# Measurement: 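Firefly luciferase from a tcf-site Wingless reporter, measured alongside co-transfected Renilla luciferase that tracks transfection; pathway stimulated by a Wingless plasmid; the firefly-to-Renilla ratio is not deposited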
# Scale: firefly reporter light: higher = more Wg reporter light, before normalisation; Renilla control light: higher = more transfected or surviving cells
# Rule for the call: 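a knock-down is a candidate when at least two out of four statistical tests show it departing from its plate mean; one test alone signals a weak candidate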
# Meaning of the calls: active = candidate regulator (raises or lowers reporter); inactive = not a candidate
# The screen tested about 22,000 reagents; below is a random part of those that have a named target and a result. In the full data, 233 (1.1%) were called active. 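Light values are raw, unnormalised plate reads; the ratio scores behind the reporter calls were not deposited.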 A plus sign joins genes that one reagent is predicted to hit. Not given: the amount of reagent, the time to read-out, the dose of the treatment.
Target gene,DRSC id,"firefly reporter light, replicate 1","firefly reporter light, replicate 2","Renilla control light, replicate 1","Renilla control light, replicate 2",Outcome
CG9451 (GeneID 40118),DRSC11074,9083,,3296,,inactive
Ir11a (GeneID 32189),DRSC19699,22663,,9602,,inactive
CG18095 (GeneID 34823),DRSC01948,2820,10080,1367,4361,inactive
CG14694 (GeneID 41307),DRSC14917,14328,,3389,,inactive
sisA (GeneID 32068),DRSC20374,21098,,8489,,inactive
CG14882 (GeneID 41994),DRSC15006,1964,5409,1097,1866,inactive
squ (GeneID 2768920),DRSC01549,21797,,9848,,inactive
DNAlig4 (GeneID 32322),DRSC19436,16797,,7796,,inactive
ckd (GeneID 38402),DRSC08418,6928,,3149,,inactive
CG34316 + asRNA:CR43471,DRSC13080,3736,,1650,,inactive
CNMaR (GeneID 39127),DRSC08992,3513,,810,,inactive
CNMaR (GeneID 39127),DRSC10224,5754,,2764,,inactive
whe (GeneID 33121),DRSC20537,21584,,10146,,inactive
CG30491 (GeneID 35704),DRSC21472,6.88e5,6.22e5,6.07e5,3.11e5,inactive
lili (GeneID 42956),DRSC14143,2448,5760,1127,1864,inactive
Ir60a (GeneID 37881),DRSC04212,1997,4443,452,1929,inactive
Coq8 (GeneID 32239),DRSC19900,13216,,7249,,inactive
CG14229 (GeneID 32980),DRSC19585,27160,,4517,,inactive
lig (GeneID 35771),DRSC07246,9005,,1206,,inactive
lig (GeneID 35771),DRSC07247,3360,6546,816,2941,inactive
CG8785 (GeneID 36391),DRSC07266,10768,,2608,,inactive
mav (GeneID 43804),DRSC17149,21341,,16214,,inactive
Snmp1 (GeneID 42514),DRSC16168,26027,,3986,,inactive
CG17768 + LSm-4,DRSC02845,2528,6467,632,2560,inactive
GC (GeneID 38194),DRSC08396,4032,,2004,,inactive
Klp3A (GeneID 31240),DRSC18676,4040,8630,1665,3680,inactive
Klp3A (GeneID 31240),DRSC21625,3.61e5,4.76e5,1.85e5,1.51e5,inactive
Jon65Ai (GeneID 38685),DRSC09731,1945,11474,1274,4905,inactive
tal-1A + tal-2A + tal-AA + 1 more,DRSC12992,4727,,1057,,inactive
mAChR-A (GeneID 37892),DRSC04702,4586,9941,951,2787,inactive
CG8475 (GeneID 34114),DRSC03091,8298,,4915,,inactive
CG30369 (GeneID 246572),DRSC21996,8.20e5,8.75e5,3.42e5,3.95e5,inactive
CG11617 (GeneID 33183),DRSC00321,5212,8507,1936,3826,inactive
CG11617 (GeneID 33183),DRSC21786,5.87e5,6.75e5,2.49e5,2.27e5,inactive
FANCI (GeneID 35895),DRSC06416,3264,6171,1063,2769,inactive

Continued, starting with the last 10 of the part before.
Target gene,DRSC id,"firefly reporter light, replicate 1","firefly reporter light, replicate 2","Renilla control light, replicate 1","Renilla control light, replicate 2",Outcome
Klp3A (GeneID 31240),DRSC18676,4040,8630,1665,3680,inactive
Klp3A (GeneID 31240),DRSC21625,3.61e5,4.76e5,1.85e5,1.51e5,inactive
Jon65Ai (GeneID 38685),DRSC09731,1945,11474,1274,4905,inactive
tal-1A + tal-2A + tal-AA + 1 more,DRSC12992,4727,,1057,,inactive
mAChR-A (GeneID 37892),DRSC04702,4586,9941,951,2787,inactive
CG8475 (GeneID 34114),DRSC03091,8298,,4915,,inactive
CG30369 (GeneID 246572),DRSC21996,8.20e5,8.75e5,3.42e5,3.95e5,inactive
CG11617 (GeneID 33183),DRSC00321,5212,8507,1936,3826,inactive
CG11617 (GeneID 33183),DRSC21786,5.87e5,6.75e5,2.49e5,2.27e5,inactive
FANCI (GeneID 35895),DRSC06416,3264,6171,1063,2769,inactive
CG33771 (GeneID 3772424),DRSC11718,2738,,1177,,inactive
CG2993 (GeneID 40924),DRSC14284,14681,,3824,,inactive
CG2993 (GeneID 40924),DRSC15457,12584,,1376,,inactive
Fatp2 (GeneID 37657),DRSC03971,16528,6.34e5,8838,3.04e5,inactive
Fatp2 (GeneID 37657),DRSC04178,2338,8626,779,2869,inactive
Fatp2 (GeneID 37657),DRSC04330,4332,10273,1063,2706,inactive
CG6484 (GeneID 36994),DRSC06991,13034,,3509,,inactive
ERp60 (GeneID 36270),DRSC07309,8257,,1626,,inactive
CG43069 (GeneID 12798338),DRSC05752,16293,,11664,,inactive
mTor (GeneID 47396),DRSC02811,6928,,2032,,inactive
SrpRbeta (GeneID 47283),DRSC21668,6.10e5,7.23e5,4.25e5,3.44e5,inactive
CG14234 (GeneID 32988),DRSC19317,4913,,1949,,inactive
CG14234 (GeneID 32988),DRSC19589,9883,,8155,,inactive
Art6 (GeneID 41699),DRSC16583,16917,,3629,,inactive
CG4733 (GeneID 42368),DRSC15634,15336,,3580,,inactive
CG14778 (GeneID 31100),DRSC17953,27544,,21267,,inactive
bip1 (GeneID 38891),DRSC11327,5312,,1720,,inactive
Rab4 + CG42239,DRSC05667,18272,,12176,,inactive
CG15734 (GeneID 32177),DRSC19701,17769,,9801,,inactive
CG42613 (GeneID 42269),DRSC13332,3580,,966,,inactive
CG42613 (GeneID 42269),DRSC14769,10925,,2544,,inactive
CG42613 (GeneID 42269),DRSC15802,3156,10706,1120,2058,inactive
CG42613 (GeneID 42269),DRSC22613,6.66e5,6.37e5,2.19e5,1.45e5,inactive
Lcp4 (GeneID 35820),DRSC07458,5143,7501,1224,2576,inactive
Pits (GeneID 32205),DRSC19385,32197,,9195,,inactive
Pits (GeneID 32205),DRSC19812,24909,,13048,,inactive
CG33191 + Pif1B,DRSC12706,2243,,915,,inactive
CG33331 + CG33332,DRSC22928,4.47e5,4.28e5,1.70e5,1.42e5,inactive
Zasp67 (GeneID 39148),DRSC10169,11323,,4402,,inactive
CG15539 (GeneID 43627),DRSC15075,8294,,3003,,inactive
CG3603 (GeneID 31289),DRSC18317,13225,,12176,,inactive
CG9686 (GeneID 31921),DRSC18439,18613,,7584,,inactive
CG13721 (GeneID 38556),DRSC08330,1638,7162,1333,3786,inactive
CG34292 (GeneID 5740196),DRSC13807,2947,,1488,,inactive
CG31051 (GeneID 261634),DRSC15034,3530,11223,1048,2776,inactive
Akap200 (GeneID 34170),DRSC01864,10042,,3917,,inactive
CG9702 (GeneID 43634),DRSC16540,9500,,3708,,inactive
AspRS-m (GeneID 326155),DRSC02646,1424,6315,804,3370,inactive
RpS9 (GeneID 39108),DRSC11273,4944,,2112,,inactive
TwdlM (GeneID 43200),DRSC15810,8183,,3894,,inactive
Cyp1 (GeneID 32595),DRSC20234,3420,11397,1225,2839,inactive
CG13071 (GeneID 39781),DRSC09954,5913,,3238,,inactive
mino (GeneID 43350),DRSC14132,1817,7707,994,1957,inactive
CG3222 (GeneID 39114),DRSC10355,5324,,2680,,inactive
Drs (GeneID 38419),DRSC08657,8416,,3941,,inactive
CG32751 (GeneID 318189),DRSC21770,4.07e5,4.18e5,2.01e5,1.36e5,inactive
CG5104 (GeneID 40280),DRSC11765,19074,,4513,,inactive
CG7276 (GeneID 39668),DRSC10797,6321,,2736,,inactive
CG34039 (GeneID 3885643),DRSC09318,2107,,1329,,inactive
T48 (GeneID 43235),DRSC16878,7216,,3157,,inactive
CG13992 (GeneID 33831),DRSC02324,2512,4992,946,1943,inactive
Clp (GeneID 33259),DRSC00746,2145,3473,1339,2011,inactive
janB (GeneID 43568),DRSC16973,9673,,3272,,inactive
CG32440 (GeneID 318030),DRSC11480,4198,,1722,,inactive
HDAC11 (GeneID 326120),DRSC14280,10346,,10801,,inactive
CG43367 + asRNA:CR32252,DRSC21715,5.20e5,4.58e5,2.65e5,1.40e5,inactive
CG32081 (GeneID 326194),DRSC09861,5302,,2955,,inactive
Phm (GeneID 37823),DRSC04639,13915,,4220,,inactive
